Experimental findings from the supplement of paper PMC8426693 are described below.

The other results are listed elsewhere or left out.

The test system of this assay is SARS-CoV-2 5_SL4 RNA. As to the kind of experiment: NMR binding call after quantification (hit when 2 of 3 NMR criteria are met) (binary (1 = binding, 0 = not binding)); higher = binding. The note with it: RNA concentration 10 µM; fragment concentration 200 µM; 293 K.
On to `N#Cc1ccc(Cn2cnc3ccccc32)cc1`, for which the NMR binding call is 0.

Turning to `NC(=O)C1CCCn2ccnc21` (stereo unspecified), the NMR binding call worked out at 0.

Compound `CCC(NC)c1ccncc1` (stereo unspecified) registered an NMR binding call of 0.

With `Cc1occc1C(=O)Nc1cc(C(C)(C)C)on1`, the NMR binding call was found to be 0.

Consider `Cc1c(Cl)cccc1NC(=O)CN.Cl`, for which the NMR binding call was 0.

`CC(N)C(=O)Nc1cc(C(F)(F)F)n[nH]1.Cl` (stereo unspecified) yielded an NMR binding call of 0.

The compound `Nc1ncncc1-c1ccc(Cl)cc1` had an NMR binding call of 0.

Turning to `O=C(NCCc1ccncc1)c1ccccc1F`, the NMR binding call is 0.

For `Cc1nc2ccccc2n1CCC(N)=O`, the NMR binding call came to 0.

Consider `CN(C)c1ccc(CNn2cnnc2)cc1`, for which the NMR binding call was found to be 0.

For the compound `CC(N)c1nc(Cc2ccccc2)no1.Cl` (stereo unspecified), the NMR binding call came to 0.

`COc1ccc(NCc2ccccc2O)cc1`: the NMR binding call was 0.

Compound `CCNc1ccc(C)nn1` yielded an NMR binding call of 0.

`CC(=O)NCc1ncc[nH]1`: the NMR binding call was 0.

For `c1ccc(SCCN2CCOCC2)cc1`, the NMR binding call is 0.

Turning to `CC(C)Nc1cccnc1`, the NMR binding call turned out to be 0.

Compound `FC(F)(F)c1ccc(CN2CCOCC2)cc1` registered an NMR binding call of 0.

`Cc1n[nH]c(C)c1S(=O)(=O)N(C)C` yielded an NMR binding call of 0.

In the case of `Cn1cc(Oc2ncncc2Cl)cn1`, the NMR binding call was 0.

Consider `Cl.Cl.c1cn(CC2CCCCN2)nn1` (stereo unspecified), for which the NMR binding call was determined as 0.

In turn, `CN(C)c1ccc(C(=O)Nc2ccncc2)cc1` returned an NMR binding call of 1.

`COC(=O)c1ccccc1NC(=O)N1CCCC1` returned an NMR binding call of 0.

As for `O=C(NCCN1CCCC1=O)Nc1ccccc1`, the NMR binding call is 0.

As for `CN(C)Cc1ccc(C#N)cc1`, the NMR binding call worked out at 0.

The compound `Cc1cnc(N2CCNCC2)s1.Cl.Cl` had an NMR binding call of 0.

Compound `Cc1cc2ncn(CC(N)=O)c2cc1C` came in with an NMR binding call of 0.

Consider `CC(C)(C)C(=O)NCCc1nc2ccccc2[nH]1`, for which the NMR binding call came to 0.

`OCCN1CCOCC1` yielded an NMR binding call of 0.

For `COCC1CN(c2ccccn2)CCO1` (stereo unspecified), the NMR binding call turned out to be 0.

For the compound `COC(=O)Nc1ccc(Cc2ccncc2)cc1`, the NMR binding call is 0.

For `CC(C)C(=O)Nc1ccc(N2CCCCC2)cc1`, the NMR binding call worked out at 0.

Turning to `OCc1cn(-c2ccc(Cl)c(Cl)c2)nn1`, the NMR binding call is 1.

In turn, `CN1CCN(C(=O)CO)CC1` yielded an NMR binding call of 0.

`O=C(CCCc1ccccc1)N1CCOCC1` had an NMR binding call of 0.

In turn, `O=C(NCCc1ccncc1)NC1CCCCC1` showed an NMR binding call of 0.

The compound `CC(=O)Nc1ccc(CN2CCOCC2)cc1` came in with an NMR binding call of 0.
